# Assay results reported in PMC5650337 (Oncotarget, 2017).
# *1 amine or outer side, *2 acyl side, *3 side chain or, on linkers, in order; H or OH if unused. [ ]: non-standard residue; d: D form. βAla(3R-(1-naphthyl)) = O=C(C[C@@H](N[*:1])c1cccc2ccccc12)[*:2]
# Experiment: general procedure: Fmoc solid-phase peptide synthesis; Chlorotrityl chloride (CTC) resin; HCTU; PyAOP
# Details: whole synthesis, HPLC
row,Substance,purity (crude or final not stated) [%]
1,"Cyclo(1,10)GPR-(Anapa)FDEFWR*",95
2,NH2-Arg-Anapa-Phe-Asp-OH*,> 95
3,cyclo(P[dP]R[βAla(3R-(1-naphthyl))]FDDF[βAla(3R-(1-naphthyl))]R),> 95
